Data as given in PubChem BioAssay AID504764 (Drosophila RNAi Screening Center, 2011)

- Test: 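Genome-wide screen for regulators of Notch-driven gene expression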 (primary screen)
- System: Drosophila Kc167 cells
- Knock-down reagent: long dsRNA against Drosophila genes
- Duration: about 5 days (4 days dsRNA, then 24 h after transfection)
- Treatment: transfection of constitutively active membrane-tethered Notch lacking the extracellular domain, read 24 h later
- Read-out: 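Firefly luciferase from an E(spl)m3 reporter with active Notch, plus control-promoter and uninduced reporter wells for normalisation; unnormalised counts, duplicate wells a and b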
- Direction: induced reporter light, run 1, well a and induced reporter light, run 1, well b: higher = more light from the Notch target reporter with active Notch; control promoter light, run 1, well a and control promoter light, run 1, well b: higher = more light from the viral control promoter (cell number, transfection, viability); uninduced reporter light, run 1, well a: higher = more light from the Notch target reporter without active Notch
- Active means: 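Hit if the duplicate-averaged log2 ratio of induced to control-promoter light gives a plate-wise z beyond ±2, or induced to uninduced beyond ±1.8; weak-control or discordant-duplicate wells dropped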
- Meaning of the calls: active = modifier hit (raised or lowered Notch signal); inactive = not a hit
The deposit covers about 22,000 reagents; below is a random part of those that have a named target and a result. Over the whole deposit, 403 (1.9%) got an active call. 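Unnormalised raw counts per well; ratio z-scores behind the hit calls and whether each hit raises or lowers signal are not deposited.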 A plus sign joins genes that one reagent is predicted to hit. Not stated in the record: the amount of reagent.

gene knocked down,dsRNA,"induced reporter light, run 1, well a","induced reporter light, run 1, well b","control promoter light, run 1, well a","control promoter light, run 1, well b","uninduced reporter light, run 1, well a",activity call
CG10710,DRSC09784,1.49e5,1.06e5,1.94e5,1.13e5,5700,inactive
CG18258,DRSC19798,18140,16320,13282,8825,1438,inactive
CG7376,DRSC10829,1.17e5,98585,65230,22035,10185,inactive
CG31267,DRSC15748,2.01e5,1.73e5,1.92e5,1.77e5,15305,inactive
CG14142,DRSC10145,2.47e5,2.46e5,2.73e5,2.27e5,14415,inactive
Nplp1,DRSC04370,1.93e5,2.24e5,1.58e5,1.89e5,15850,inactive
CG32284,DRSC08025,2.44e5,2.06e5,2.08e5,1.96e5,16765,inactive
RpS14b,DRSC18711,5500,4345,9290,8620,288,inactive
stau,DRSC07698,94460,1.16e5,1.83e5,1.83e5,8230,inactive
CG15211,DRSC19657,1.30e5,1.30e5,2.06e5,1.87e5,10965,inactive
CG7695,DRSC16289,2.01e5,2.18e5,1.94e5,2.16e5,13910,inactive
CG8008,DRSC07053,1.62e5,1.48e5,1.80e5,2.38e5,14900,active
dati,DRSC17128,1.58e5,1.64e5,2.18e5,2.15e5,12150,inactive
dati,DRSC17153,85170,1.02e5,1.31e5,1.39e5,6500,inactive
Cda5,DRSC00003,1.32e5,1.18e5,1.36e5,1.53e5,9360,inactive
Cda5,DRSC00529,1.28e5,1.16e5,1.10e5,75740,10000,inactive
Cda5,DRSC00532,1.20e5,97945,1.01e5,69635,8530,inactive
CG3294,DRSC00590,1.61e5,1.70e5,1.67e5,1.89e5,15390,inactive
Gr98a,DRSC14719,2.03e5,1.84e5,2.64e5,2.75e5,13510,inactive
yellow-e2,DRSC15169,2.39e5,2.29e5,2.71e5,2.26e5,19975,inactive
LamC,DRSC07453,1.41e5,1.24e5,1.34e5,1.32e5,9710,inactive
jhamt,DRSC01985,1.38e5,1.51e5,1.37e5,1.49e5,13630,inactive
tay,DRSC20142,1.82e5,1.57e5,2.03e5,1.78e5,11965,inactive
GILT1,DRSC16565,1.58e5,1.41e5,1.15e5,95220,9210,inactive
CG30323,DRSC07656,1.24e5,91900,1.18e5,1.46e5,6800,inactive
CysRS-m,DRSC07129,1.62e5,1.73e5,1.66e5,1.62e5,15365,inactive
Dhit,DRSC07411,93140,1.14e5,1.69e5,1.83e5,7745,inactive

In a second layout: results already given.
gene knocked down	dsRNA	induced reporter light, run 1, well a	induced reporter light, run 1, well b	control promoter light, run 1, well a	control promoter light, run 1, well b	uninduced reporter light, run 1, well a	activity call
Nplp1	DRSC04370	1.93e5	2.24e5	1.58e5	1.89e5	15850	inactive
CG32284	DRSC08025	2.44e5	2.06e5	2.08e5	1.96e5	16765	inactive
RpS14b	DRSC18711	5500	4345	9290	8620	288	inactive
stau	DRSC07698	94460	1.16e5	1.83e5	1.83e5	8230	inactive
CG15211	DRSC19657	1.30e5	1.30e5	2.06e5	1.87e5	10965	inactive
CG7695	DRSC16289	2.01e5	2.18e5	1.94e5	2.16e5	13910	inactive

Next records follow.
gene knocked down,dsRNA,"induced reporter light, run 1, well a","induced reporter light, run 1, well b","control promoter light, run 1, well a","control promoter light, run 1, well b","uninduced reporter light, run 1, well a",activity call
Mlh1,DRSC07473,1.57e5,91160,86430,83445,9385,inactive
stx,DRSC18442,6555,5980,11930,11060,3178,inactive
stx,DRSC18443,30155,30990,73375,54050,6165,inactive
Cox10,DRSC02804,2.18e5,2.21e5,1.78e5,1.80e5,15175,inactive
Ask1,DRSC16789,1.76e5,1.62e5,1.66e5,1.71e5,13700,inactive
Pfdn5,DRSC16183,1.79e5,2.03e5,2.62e5,2.72e5,15075,inactive
Polr1E,DRSC14506,2.17e5,1.88e5,2.07e5,1.84e5,10532,inactive
Polr1E,DRSC15358,2.73e5,2.48e5,3.28e5,3.53e5,20530,inactive
CG42557 + CG42558,DRSC13963,1.39e5,1.47e5,1.32e5,1.43e5,10728,inactive
CG42557 + CG42558,DRSC16329,1.53e5,1.74e5,1.86e5,1.66e5,9285,inactive
CG13049,DRSC09930,1.71e5,1.58e5,1.60e5,2.24e5,9540,inactive
Rcd-1,DRSC19569,57965,69670,68790,67875,9130,inactive
CG13723,DRSC10052,2.55e5,2.45e5,3.47e5,3.32e5,13085,inactive
Ekar,DRSC17161,1.45e5,1.45e5,2.64e5,2.81e5,10835,inactive
Sms,DRSC10408,65475,61465,79715,82605,3745,inactive
CG9812,DRSC04566,1.53e5,1.47e5,1.59e5,1.16e5,11050,inactive
CG13678,DRSC10036,1.69e5,1.36e5,2.32e5,2.15e5,13115,inactive
CG14546,DRSC14890,1.38e5,1.59e5,1.75e5,1.69e5,10760,inactive
CkIIbeta2,DRSC07361,98230,59040,75920,67080,5750,inactive
CG12115,DRSC17811,76615,73775,86930,88830,6980,inactive
CG10663,DRSC09770,2.14e5,1.55e5,1.88e5,91840,8525,active
Kebab,DRSC00827,2.30e5,2.24e5,1.55e5,1.90e5,16730,inactive
C1GalTA,DRSC03246,2.88e5,2.55e5,1.99e5,1.97e5,17710,inactive
CG10376,DRSC02049,2.53e5,2.56e5,2.10e5,1.94e5,20360,inactive
CG34217,DRSC05083,57535,68970,73665,73735,4020,inactive
CG5404,DRSC15793,1.79e5,1.77e5,1.35e5,1.42e5,12740,inactive
dpr3,DRSC00395,95040,79680,79615,51185,6055,inactive
dpr3,DRSC00396,87485,98435,78325,36455,8500,inactive
dpr3,DRSC21369,,,,,,inactive
CG5116,DRSC15720,2.70e5,2.24e5,3.77e5,3.78e5,13155,inactive
CG2147,DRSC18211,1.94e5,2.16e5,2.42e5,2.47e5,13620,inactive
e(r),DRSC18768,2.04e5,2.19e5,2.62e5,2.48e5,14465,inactive
pths,DRSC03171,18965,12055,10310,8425,670,inactive
Proc,DRSC03009,9255,9890,9432,7342,4255,inactive
CG8419,DRSC03087,1.76e5,1.91e5,1.35e5,1.60e5,21360,inactive
CG31751,DRSC02464,45780,43240,49250,72020,3670,inactive
CG31751,DRSC02465,1.00e5,66655,69105,81310,4465,inactive
